Literature values as cited in patent publication US20050203105A1, “Composition and method for controlling alcohol-induced facial flushing in susceptible humans” (priority 2003, published 2005).

Settings: single-dose study

## Clc1ccc2c(c1)CCc1cccnc1C2=C1CCNCC1 [desloratadine, descarboethoxyloratadine]
  effect of food on peak plasma concentrations (Cmax): not affected by food
